# Key:
# A549 cell line = assay: In vitro cytotoxicity, SRB assay, A549; format: cell-based; details: Homo sapiens, 72 h, three independent determinations, read-out: IC50 (mean ± SD) A549
# Description: (§1) The in vitro biological efficacy of 3a–d was evaluated in A549 and HCT116 cell lines. Briefly, the cells were seeded into 96-well microtest plates (1.0 × 10^4 cells per well) in 100 μL of culture medium. Cells were treated in triplicate with gradient concentrations of test drugs and incubated at 37 °C for 72 h. The cell viabilities on the cell lines were determined by the SRB assay subsequently. The drug concentration required for 50% growth inhibition (IC50) of tumor cells was determined from the dose–response curves.
# HCT116 cell line = assay: In vitro cytotoxicity, SRB assay, HCT116; format: cell-based; details: Homo sapiens, HCT-116, 72 h, three independent determinations, read-out: IC50 (mean ± SD) HCT-116
# Description: as §1
smiles,measurement,setting,value
"O=C(CCCCCCC(=O)Nc1ccccc1)NO [SAHA, Suberoylanilide hydroxamic acid, reference compound]",IC50,A549 cell line,2.65 ± 0.126 µM
same,IC50,HCT116 cell line,0.895 ± 0.0573 µM

# — paper PMC6964270, “Co-Prodrugs of 7-Ethyl-10-hydroxycamptothecin and Vorinostat with in Vitro Hydrolysis and Anticancer Effects” (ACS Omega, 2019)
